Measured values published in patent publication US20160010082A1.
No constants are given. Whether binding was seen depends on the method and setting. Some results given as binding are weak or reduced against the parent protein; the word gives no strength. For part of these data: Tags and fused reporters may be left off the sequences shown.

By UniProt entry, the sequences of proteins in these tests, tags left out. Where a name states a change or a piece, a line headed by the entry shows the natural chain unless it says otherwise. Chains listed by the source or under a name are the forms on record and can include a tag or linker.
biotinylated vascular endothelial growth factor (P15692, form named): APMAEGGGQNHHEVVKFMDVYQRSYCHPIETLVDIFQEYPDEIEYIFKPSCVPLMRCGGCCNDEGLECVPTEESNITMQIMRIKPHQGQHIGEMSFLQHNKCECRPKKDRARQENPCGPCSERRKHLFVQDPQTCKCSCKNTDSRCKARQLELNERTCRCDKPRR

Legend:
[1] = molecular target: streptavidin-R-phycoerythrin (UniProt P22629); experiment: flow cytometry of E. coli displaying the construct, SA-PE
[2] = molecular target: streptavidin-R-phycoerythrin (UniProt P22629); experiment: flow cytometry of E. coli displaying SApep, 100 nM SA-PE; 0, 30, 60 and 90 minutes of induction
[3] = molecular target: streptavidin-R-phycoerythrin (UniProt P22629); experiment: flow cytometry of E. coli displaying the construct, fluorescently-conjugated streptavidin
[4] = molecular target: biotinylated vascular endothelial growth factor (UniProt P15692); experiment: flow cytometry of E. coli displaying the construct, 65 nM biotinylated VEGF then 10 nM SA-PE
[5] = molecular target: streptavidin-R-phycoerythrin (UniProt P22629); experiment: two-colour flow cytometry, 100 nM SA-PE alone or with 40 nM YPet-Mona
[6] = molecular target: streptavidin-R-phycoerythrin (UniProt P22629); experiment: two-colour flow cytometry, SA-PE and YPet-Mona
[7] = molecular target: streptavidin-R-phycoerythrin (UniProt P22629); experiment: two-colour flow cytometry, SA-PE and YPet-mona

B1: CPX with the streptavidin binding peptide fused to the N-terminus (pB33CPX-SApep) (protein)
chain: GQSGQAECHPQGPPCIEGRKGGQSGQSGDYNKNQYYGITAGPAYRINDWASIYGVVGVGYGKFQTTEYPTYKHDTSDYGFSYGAGLQFNPMENVALDFSYEQSRIRSVDVGTWIAGVGYRFGGSGATSTVTGGYAQSDAQGQMNKMGGFNLKYRYEEDNSPLGVIGSFTYTEKSRTAS
Q: For B1, which binding [1] is on record?
A: binds

Q: What about the binding [2] of the same binder?
A: binds

Q: What about the binding [3] of the same binder?
A: binds

B2: CPX-L2-1 (enhanced CPX, eCPX) displaying SApep at the N-terminus (protein)
chain: GQSGQAECHPQGPPCIEGRKGGQSGQSGDYNKNQYYGITAGPAYRINDWASIYGVVGVGYGKFQTTEYPTYKHDTSDYGFSYGAGLQFNPMENVALDFSYEQSRIRSVDVGTWILSVGYRFGSKSRRATSTVTGGYAQSDAQGQMNKMGGFNLKYRYEEDNSPLGVIGSFTYTEKSRTAS
Q: Which binding [2] does the source give for B2 here?
A: binds

B3: CPX displaying the VEGF binding peptide at the N-terminus (protein)
chain: GQSGQVEPNCDIHVMWEWECFERLGGQSGQSGDYNKNQYYGITAGPAYRINDWASIYGVVGVGYGKFQTTEYPTYKHDTSDYGFSYGAGLQFNPMENVALDFSYEQSRIRSVDVGTWIAGVGYRFGGSGATSTVTGGYAQSDAQGQMNKMGGFNLKYRYEEDNSPLGVIGSFTYTEKSRTAS
Q: Which binding [4] does the source give for B3 here?
A: binds

B4: eCPX-nSApep-cP2 (protein)
chain: GQSGQAECHPQGPPCIEGRKGGQSGQSGDYNKNQYYGITAGPAYRINDWASIYGVVGVGYGKFQTTEYPTYKHDTSDYGFSYGAGLQFNPMENVALDFSYEQSRIRSVDVGTWILSVGYRFGSKSRRATSTVTGGYAQSDAQGQMNKMGGFNLKYRYEEDNSPLGVIGSFTYTEKSRTASGGQSGQPAPSIDRSTKPPL
Q: For B4, which binding [5] is on record?
A: binds

B5: eCPX-nSApep-linker-cP2 (protein)
chain: GQSGQAECHPQGPPCIEGRKGGGSGGGSGGGSGGGSGGGSGGQSGQSGDYNKNQYYGITAGPAYRINDWASIYGVVGVGYGKFQTTEYPTYKHDTSDYGFSYGAGLQFNPMENVALDFSYEQSRIRSVDVGTWILSVGYRFGSKSRRATSTVTGGYAQSDAQGQMNKMGGFNLKYRYEEDNSPLGVIGSFTYTEKSRTASGGQSGQPAPSIDRSTKPPL
Q: Which results are given for B5?
A: binding [6]: binds; binding [7]: binds; binding [5]: binds
